# In the supplement of paper PMC3334620:
# Whole data set: some 33,000 sequences, median “E-score (-0.5 to 0.5)” near -0.015, cut for the highest 2% near 0.3. The list shows a part of the results.
# Molecular target: T1, Abf1 (UniProt P14164)
# T1 sequence: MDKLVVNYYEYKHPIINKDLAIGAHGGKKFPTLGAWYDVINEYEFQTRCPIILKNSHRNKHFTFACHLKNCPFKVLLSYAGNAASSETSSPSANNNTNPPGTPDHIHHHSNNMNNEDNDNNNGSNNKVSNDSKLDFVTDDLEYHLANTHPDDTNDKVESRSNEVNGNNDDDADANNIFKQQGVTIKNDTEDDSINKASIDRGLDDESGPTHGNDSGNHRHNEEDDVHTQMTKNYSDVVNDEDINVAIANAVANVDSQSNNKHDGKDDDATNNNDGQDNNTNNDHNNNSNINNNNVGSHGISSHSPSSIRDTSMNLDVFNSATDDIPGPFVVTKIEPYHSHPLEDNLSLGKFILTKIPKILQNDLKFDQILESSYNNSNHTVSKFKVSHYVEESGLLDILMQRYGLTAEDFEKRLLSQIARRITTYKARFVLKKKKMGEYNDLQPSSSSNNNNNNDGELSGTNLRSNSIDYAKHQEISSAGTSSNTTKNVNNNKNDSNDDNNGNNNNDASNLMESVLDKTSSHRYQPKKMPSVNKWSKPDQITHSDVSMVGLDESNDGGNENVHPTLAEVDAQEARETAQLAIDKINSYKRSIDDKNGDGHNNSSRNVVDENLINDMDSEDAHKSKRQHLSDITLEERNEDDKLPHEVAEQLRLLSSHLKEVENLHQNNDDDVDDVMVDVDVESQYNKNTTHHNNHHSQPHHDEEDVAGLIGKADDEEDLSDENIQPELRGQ
# Experiment: PBM E-score (8-mer binding enrichment) (E-score (-0.5 to 0.5)); higher = stronger / more preferred TF binding
# Conditions: protein concentration: 200 nM; construct: GST-full length
# Outline: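 Each ungapped eight-base word and its reverse complement, pooled, received an E-score from the Universal PBM Analysis Suite. Underlying scans, normalised with masliner, recorded fluorescent anti-GST bound to GST-tagged yeast transcription factors. These were applied at about 100-200 nM to universal all-10-mer Agilent arrays double-stranded by primer extension.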
row,Sequence,PBM E-score
1,GTTAGGCA,-0.238
2,CGTTGGCA,0.129
3,AACATCGT,0.236
4,GATAAACC,0.165
5,GGGGTTGA,-0.0538
6,CTAGAGAC,-0.201
7,GACCTCTC,-0.047
8,CTCGGAAG,-0.176
9,AACTACCG,0.00871
10,AAAGGGTG,-0.0403
11,CCTACCGA,-0.148
12,ACGGATTG,0.22
13,GATGCTGC,-0.196
14,ACATGTGC,0.0714
15,CGGGTCGA,-0.105
16,ACTTTGAG,0.086
17,AGTAAATG,0.126
18,AACGATCC,-0.00029
19,CAAGCCGC,-0.184
20,ATTGCATG,0.0833
21,GCTTTGTA,0.158
22,CCCTGCCC,-0.24
23,CAGTCCTC,-0.151
24,ATCCCGTC,-0.0101

row,Sequence,PBM E-score
1,AATGGTCG,-0.0391
2,AAGGGGGT,-0.379
3,ACGGTACA,0.214
4,CAAAGGAG,-0.199
5,CATGACGA,0.374
6,TCATGAGA,0.138
7,GCGCCGTA,0.291
8,CACTGATG,-0.0715
9,ATAAAGAG,-0.0776
10,AAACGTGT,0.0388
11,GACGGCCA,0.0316
12,CAAGCCCG,-0.172
13,ATAAGTCA,0.169
14,ACTTATAA,0.00352
15,TCTGAGAA,0.0923
16,GAAGTTAC,0.179
17,CCAATACA,-0.169
18,GATTGTAC,-0.114
19,ATCGCGAG,0.138
20,AGTAGCAG,-0.05
21,GGGAGCAC,-0.278
22,TACCAGCA,0.0002
23,ATCATTCG,0.332
24,CACCATAA,0.073

row,Sequence,PBM E-score
1,AGATGGCG,0.0792
2,GTATTTTA,0.0901
3,ACCTGTGA,0.0512
4,AGGTGTGG,-0.0954
5,GTCTAGGA,-0.0207
6,AAGTCCGA,-0.109
7,TAAAGGGA,-0.112
8,AGATACGG,0.129
9,GATATAGC,0.228
10,CAAGCCCA,-0.227
11,CAATCGAA,0.102
12,AACTGGTG,-0.0816
13,AAGCTGGA,-0.153
14,CACCATCA,-0.134
15,TAGAGGCA,-0.138
16,GTTTCTCA,-0.0255
17,GGGGAAAC,-0.187
18,GTATTGAC,0.00364
19,ACGACCGA,0.0201
20,CTCATGGA,0.00022
21,ATCCAATG,-0.158
22,AAGAGACC,-0.0347
23,GGGATGTA,0.0488
24,CCAGGAGC,-0.267

# 6 records drawn at random from the list so far, as already listed:
row,Sequence,PBM E-score
9,GATATAGC,0.228
6,AAGTCCGA,-0.109
13,AAGCTGGA,-0.153
22,AAGAGACC,-0.0347
1,AGATGGCG,0.0792
21,ATCCAATG,-0.158

# (next part)

row,Sequence,PBM E-score
1,GACACTCC,-0.012
2,GACACATC,0.00853
3,AAGAGCCA,-0.0178
4,CTGCGATA,0.0546
5,CCTTTTAA,0.0637
6,GGAAACCC,-0.156
7,GCGTTAAA,0.118
8,AAACCAAT,0.137
9,GCATATCA,0.319
10,GCCTTTCC,-0.0427
11,CAGCTAAA,-0.108
12,CAACATGA,0.159
13,AGCAGTAT,0.0121
14,GGGGAGAC,-0.242
15,AACGTATT,0.148
16,ATCCACTA,0.0769
17,CTCCCGAA,-0.115
18,CACAGTGC,-0.0692
19,CTTCACGC,0.135
20,CCTTTCCG,-0.0908
21,AACTCAGA,-0.0967
22,AAAATGCA,-0.0998
